Data taken from the supplement of paper PMC11546906.
The other results are listed elsewhere or left out. This data set is noisy: repeats of one test often differ as much as different tests do.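 A screen tested FDA-approved drugs combined with one-eighth-MIC colistin against a clinical mcr-1-positive, multidrug-resistant E. coli isolate, measuring OD600 at 24 h. Controls were untreated bacteria (growth) and broth alone (blank). An OD600 under 0.2 marked a combination as active.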

Test system: Escherichia coli 42 (mcr-1-positive clinical isolate)
Assay: OD600 after 24 h growth with compound plus colistin (absorbance units (OD600)); higher = more bacterial growth (less inhibition)
Settings: first compound 25 µM; colistin concentration 0.5 ug/mL; incubation time 24 h; 37 °C

| SMILES | OD600 |
| --- | --- |
| CC1=NN(c2ccccc2)C(=O)C1 [Edaravone] + CCC(C)CCCC(=O)N[C@@H](CCN)C(=O)N[C@H](C(=O)N[C@@H](CCN)C(=O)N[C@H]1CCNC(=O)[C@H]([C@@H](C)O)NC(=O)[C@H](CCN)NC(=O)[C@H](CCN)NC(=O)[C@H](CC(C)C)NC(=O)[C@@H](CC(C)C)NC(=O)[C@H](CCN)NC1=O)[C@@H](C)O [colistin] | inactive: 1.08 |
| CC1=Nc2ccc(Cl)cc2S(=O)(=O)N1 [Diazoxide] + CCC(C)CCCC(=O)N[C@@H](CCN)C(=O)N[C@H](C(=O)N[C@@H](CCN)C(=O)N[C@H]1CCNC(=O)[C@H]([C@@H](C)O)NC(=O)[C@H](CCN)NC(=O)[C@H](CCN)NC(=O)[C@H](CC(C)C)NC(=O)[C@@H](CC(C)C)NC(=O)[C@H](CCN)NC1=O)[C@@H](C)O [colistin] | inactive: 1.07 |
| C[C@](N)(Cc1ccc(O)c(O)c1)C(=O)O [Methyldopa] + CCC(C)CCCC(=O)N[C@@H](CCN)C(=O)N[C@H](C(=O)N[C@@H](CCN)C(=O)N[C@H]1CCNC(=O)[C@H]([C@@H](C)O)NC(=O)[C@H](CCN)NC(=O)[C@H](CCN)NC(=O)[C@H](CC(C)C)NC(=O)[C@@H](CC(C)C)NC(=O)[C@H](CCN)NC1=O)[C@@H](C)O [colistin] | inactive: 0.985 |
| CO[C@H]1/C=C/O[C@@]2(C)Oc3c(C)c(O)c4c(O)c(c5c(nc6cc(C)ccn65)c4c3C2=O)NC(=O)/C(C)=C\C=C\[C@H](C)[C@H](O)[C@@H](C)[C@@H](O)[C@@H](C)[C@H](OC(C)=O)[C@@H]1C [Rifaximin] + CCC(C)CCCC(=O)N[C@@H](CCN)C(=O)N[C@H](C(=O)N[C@@H](CCN)C(=O)N[C@H]1CCNC(=O)[C@H]([C@@H](C)O)NC(=O)[C@H](CCN)NC(=O)[C@H](CCN)NC(=O)[C@H](CC(C)C)NC(=O)[C@@H](CC(C)C)NC(=O)[C@H](CCN)NC1=O)[C@@H](C)O [colistin] | active: 0.05 |
